Values from PubChem BioAssay AID1159578 (Peter MacCallum Cancer Centre, 2015)
The whole screen tested about 18,000 reagents; this is a part drawn at random. About 1,030 of all reagents (5.7%) count as active. 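Inactive calls also include pools with fewer than 3300 nuclei, whose migration was not assessed.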 The raw values are shown without normalisation. Reagent sequences are not shown.

Assay: 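Genome-wide hunt for genes controlling movement of lymphatic endothelial cells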 (primary screen)
Cells: human lymphatic endothelial cells
Reagent: siRNA pool against human genes, 40 nM
Time to read-out: 48 h after transfection
Read-out: 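Cells stained with dye and imaged after a scratch; covered wound area and nuclei counted, duplicates averaged, migration set against mock wells and turned into a robust z-score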
Direction: migration robust z-score: higher = faster migration into the scratch; migration relative to mock: higher = more scratch area covered than mock; nuclei per well: higher = more cells in the well
Hit rule: 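Pools averaging fewer than 3300 nuclei are never called; remaining pools count as changed when migration robust z lies outside -2 to 2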
Calls: active = migration changed; inactive = no migration change, or too few cells

target,PubChem SID,migration robust z-score,migration class with cell-count check,migration relative to mock,"nuclei per well, duplicate mean",activity call
ZNF44 (GeneID 51710),SID255357866,1.1,migration z between -2 and 2; enough cells,1.18,6705,inactive
BIRC7 (GeneID 79444),SID255360291,-3.11,migration z below -2; enough cells,0.2,4334,active
EDN2 (GeneID 1907),SID255349428,-1.46,migration z between -2 and 2; enough cells,0.51,4661,inactive
POLM (GeneID 27434),SID255357057,-0.62,migration z between -2 and 2; enough cells,0.68,5022,inactive
SLC10A7 (GeneID 84068),SID255361176,0.39,migration z between -2 and 2; enough cells,0.88,4820,inactive
STK40 (GeneID 83931),SID255361135,-2.59,migration z below -2; enough cells,0.3,5564,active
OR2L2 (GeneID 26246),SID255356731,-0.1,migration z between -2 and 2; enough cells,0.86,3988,inactive
DYNLT1 (GeneID 6993),SID255352802,0.84,migration z between -2 and 2; enough cells,1.1,7196,inactive
BCOR (GeneID 54880),SID255358237,-0.58,migration z between -2 and 2; enough cells,0.74,4732,inactive
CCDC106 (GeneID 29903),SID255357205,-0.04,migration z between -2 and 2; enough cells,0.88,6450,inactive
GTF2E2 (GeneID 2961),SID255350087,-0.05,migration z between -2 and 2; enough cells,0.8,5966,inactive
GABPB2 (GeneID 126626),SID255362720,-0.63,migration z between -2 and 2; enough cells,0.72,6108,inactive
CKS1B (GeneID 1163),SID255348941,-0.96,migration z between -2 and 2; enough cells,0.62,5904,inactive
DEFB105A (GeneID 245908),SID255364373,1.3,migration z between -2 and 2; enough cells,1.22,6081,inactive
CORO6 (GeneID 84940),SID255361595,-0.98,migration z between -2 and 2; enough cells,0.63,5644,inactive
GLIS3 (GeneID 169792),SID255363888,1.36,migration z between -2 and 2; enough cells,1.24,4710,inactive
CUTC (GeneID 51076),SID255357453,0.2,migration z between -2 and 2; enough cells,0.94,5819,inactive
NUP153 (GeneID 9972),SID255354710,0.39,migration z between -2 and 2; enough cells,0.88,6016,inactive
SUPT7L (GeneID 9913),SID255354660,0.99,migration z between -2 and 2; enough cells,1.15,6590,inactive
SNAPC1 (GeneID 6617),SID255352537,-0.71,migration z between -2 and 2; enough cells,0.7,5832,inactive
TCEAL9 (GeneID 51186),SID255357545,-0.06,migration z between -2 and 2; enough cells,0.87,6378,inactive
CRABP2 (GeneID 1382),SID255349074,-2.72,migration z below -2; enough cells,0.28,4133,active
GP6 (GeneID 51206),SID255357561,-0.8,migration z between -2 and 2; enough cells,0.65,5954,inactive
USH2A (GeneID 7399),SID255353084,-0.48,migration z between -2 and 2; enough cells,0.76,6366,inactive
RASL10B (GeneID 91608),SID255361931,-0.16,migration z between -2 and 2; enough cells,0.84,6462,inactive
FGF16 (GeneID 8823),SID255353843,0.8,migration z between -2 and 2; enough cells,0.96,6405,inactive
SEMA6A (GeneID 57556),SID255359466,-1.4,migration z between -2 and 2; enough cells,0.52,4040,inactive
TRPM6 (GeneID 140803),SID255363141,1.22,migration z between -2 and 2; enough cells,1.04,6484,inactive
RPS15 (GeneID 6209),SID255352225,-1.62,migration z between -2 and 2; enough cells,0.46,4920,inactive
PIGM (GeneID 93183),SID255362064,0.34,migration z between -2 and 2; enough cells,0.87,5541,inactive
PDGFRA (GeneID 5156),SID255351482,-0.62,migration z between -2 and 2; enough cells,0.68,4919,inactive
DNAJC25-GNG10 (GeneID 552891),SID255366041,-0.22,migration z between -2 and 2; enough cells,0.83,6382,inactive
PSMD7 (GeneID 5713),SID255351905,-1.71,migration z between -2 and 2; enough cells,0.48,6630,inactive
TOLLIP (GeneID 54472),SID255358030,-1.01,migration z between -2 and 2; enough cells,0.62,5126,inactive
MYBL1 (GeneID 4603),SID255351084,-1.66,migration z between -2 and 2; enough cells,0.46,4494,inactive
MSH6 (GeneID 2956),SID255350082,-1.1,migration z between -2 and 2; enough cells,0.6,6852,inactive
KIF7 (GeneID 374654),SID255365327,-2.14,migration z below -2; enough cells,0.34,3916,active
ZSCAN21 (GeneID 7589),SID255353209,-2.94,under 3300 nuclei; migration not judged,0.12,2988,inactive
OTUD7A (GeneID 161725),SID255363732,-0.44,migration z between -2 and 2; enough cells,0.77,5764,inactive
AVIL (GeneID 10677),SID255355281,-1.01,migration z between -2 and 2; enough cells,0.62,6202,inactive
LRRTM4 (GeneID 80059),SID255360642,-0.87,migration z between -2 and 2; enough cells,0.65,4933,inactive
PRSS58 (GeneID 136541),SID255363015,-0.5,migration z between -2 and 2; enough cells,0.71,5986,inactive
LRRC8B (GeneID 23507),SID255356284,-0.7,migration z between -2 and 2; enough cells,0.7,6960,inactive
KNCN (GeneID 148930),SID255363400,0.28,migration z between -2 and 2; enough cells,0.96,4372,inactive
CIITA (GeneID 4261),SID255350963,0.1,migration z between -2 and 2; enough cells,0.91,6893,inactive
NEDD9 (GeneID 4739),SID255351196,-2.94,under 3300 nuclei; migration not judged,0.12,3010,inactive
H2AZ1 (GeneID 3015),SID255350132,-1.1,migration z between -2 and 2; enough cells,0.6,4464,inactive
NPBWR1 (GeneID 2831),SID255349984,0.39,migration z between -2 and 2; enough cells,0.88,5862,inactive
USP43 (GeneID 124739),SID255362628,0.1,migration z between -2 and 2; enough cells,0.82,5796,inactive
AK8 (GeneID 158067),SID255363649,0.46,migration z between -2 and 2; enough cells,1.01,7002,inactive
CFAP91 (GeneID 89876),SID255361757,1.21,migration z between -2 and 2; enough cells,1.2,7094,inactive
XG (GeneID 7499),SID255353151,-0.42,migration z between -2 and 2; enough cells,0.78,4916,inactive
SLC19A4P (GeneID 56918),SID255359165,-1.7,migration z between -2 and 2; enough cells,0.44,4036,inactive
COA6 (GeneID 388753),SID255365521,0.99,migration z between -2 and 2; enough cells,1.15,5203,inactive
BCAP31 (GeneID 10134),SID255354835,-0.36,migration z between -2 and 2; enough cells,0.79,6476,inactive
OR2T12 (GeneID 127064),SID255362738,-1.35,migration z between -2 and 2; enough cells,0.53,5604,inactive
RNF222 (GeneID 643904),SID255366088,0.42,migration z between -2 and 2; enough cells,0.88,5278,inactive

Reformatted: 7 of the entries above.
TRPM6 (GeneID 140803) [SID255363141] → migration robust z-score: 1.22; migration class with cell-count check: migration z between -2 and 2; enough cells; migration relative to mock: 1.04; nuclei per well, duplicate mean: 6484; activity call: inactive
RPS15 (GeneID 6209) [SID255352225] → migration robust z-score: -1.62; migration class with cell-count check: migration z between -2 and 2; enough cells; migration relative to mock: 0.46; nuclei per well, duplicate mean: 4920; activity call: inactive
PIGM (GeneID 93183) [SID255362064] → migration robust z-score: 0.34; migration class with cell-count check: migration z between -2 and 2; enough cells; migration relative to mock: 0.87; nuclei per well, duplicate mean: 5541; activity call: inactive
PDGFRA (GeneID 5156) [SID255351482] → migration robust z-score: -0.62; migration class with cell-count check: migration z between -2 and 2; enough cells; migration relative to mock: 0.68; nuclei per well, duplicate mean: 4919; activity call: inactive
DNAJC25-GNG10 (GeneID 552891) [SID255366041] → migration robust z-score: -0.22; migration class with cell-count check: migration z between -2 and 2; enough cells; migration relative to mock: 0.83; nuclei per well, duplicate mean: 6382; activity call: inactive
PSMD7 (GeneID 5713) [SID255351905] → migration robust z-score: -1.71; migration class with cell-count check: migration z between -2 and 2; enough cells; migration relative to mock: 0.48; nuclei per well, duplicate mean: 6630; activity call: inactive
TOLLIP (GeneID 54472) [SID255358030] → migration robust z-score: -1.01; migration class with cell-count check: migration z between -2 and 2; enough cells; migration relative to mock: 0.62; nuclei per well, duplicate mean: 5126; activity call: inactive
